Experimental data from US7531506B2 (Pharma Mar, S.A., priority 2001, dated 2009).

Experiment: general procedure: Fmoc solid-phase peptide synthesis; 2-chlorotrityl chloride polystyrene resin

Substance | step yield (late stage modification step) [% yield] | crude HPLC purity (whole synthesis, HPLC (Nucleosil C18)) [%]
Cyclo[D-Phe-Tzn-Thr(rPr)-Ser(rPr)-Ile-Ala-Pro] | 33 | –
H-D-Phe(S)-Ser-Thr(rPr)-Ser(rPr)-Ile-Ala-Pro-OH | – | >63
